These are yes or no findings as the source states them, for the method shown. Binding seen in cells or lysates may run through a third protein. A result given as binding can be weak or reduced; the word gives no strength.

The values that follow come from PMC11212238.

The target of the assay is T1, RAB11B (human (endogenous in SH-SY5Y)) (UniProt Q15907).
T1 sequence: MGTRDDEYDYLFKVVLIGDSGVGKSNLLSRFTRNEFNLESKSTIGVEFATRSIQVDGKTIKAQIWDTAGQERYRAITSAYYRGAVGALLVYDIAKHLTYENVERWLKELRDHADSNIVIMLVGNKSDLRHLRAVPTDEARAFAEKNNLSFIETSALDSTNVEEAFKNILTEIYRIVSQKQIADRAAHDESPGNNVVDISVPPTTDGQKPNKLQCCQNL
As to the kind of experiment: proximity ligation; Duolink In Situ Red kit on fixed, permeabilised SH-SY5Y cells infected with EV-A71 S41 (MOI 0.1), 24 h.p.i.; uninfected cells too for CCT8 with RAB11A; pairs of mouse and rabbit primary antibodies.

As for EV-A71 3D, the binding entry was “binds”.
